Values of other authors in patent US8883962B2, “Zinc-responsive peptides, and methods of use thereof” (Massachusetts Institute of Technology, priority 2012, dated 2014).
At least one structure is not confirmed: it was looked up by name or label, or the drawing left a doubt.

Conditions: in 0.1 M NaOH(aq); cited from earlier work

SMILES: O=C1OC2(c3ccc(O)cc3Oc3cc(O)ccc32)c2ccccc21 [fluorescein]
- known quantum yield (reference standard): 0.95
